{"source": "patent US20220047701A1", "about": "“COMBINATION OF HER2/NEU ANTIBODY WITH HEME FOR TREATING CANCER” (INSERM (Institut National de la Santé et de la Recherche …, priority 2018, published 2022)", "test_system": "Trastuzumab", "assay": "SPR binding kinetics and thermodynamics of heme to immobilized Trastuzumab", "description": "Trastuzumab was immobilized on a CMS sensor chip (Biacore) by using amine-coupling kit provided by the manufacturer. The Ab was diluted in 5 mM maleic acid (pH 4) to a final concentration of 10 μg/ml. The achieved immobilization level was 6300 resonance unit (RU). All measurements were performed using HBS-EP (0.01M HEPES, pH 7.4 containing 0.15 M NaCl, 3 mM EDTA and 0.05% Tween 20). Initially, a stock solution of heme (hemin, Frontiers Scientific, Logan, Utah) at 1 mM was prepared in 0.05 N NaOH. Heme was further diluted to 10 μM in the running buffer and 8 two-fold dilutions (10-0.078 μM) were injected at flow rate of 30 μl/min. The association and dissociation phases of the interaction were monitored for 5 min and 10 min, respectively. The binding to the surface of the reference flow cell was subtracted from the binding to the Ab-coated flow cells. The regeneration of the bound-heme was achieved by exposure of the sensor surface to 300 mM imidazole. All binding analyses were performed at temperatures of 5, 10, 15, 20, 25, 30 and 35° C. The BIAevaluation version 4.1 software (Biacore) was used for the estimation of the kinetic rate constants. Calculations were performed by global analyses of the experimental data using the Langmuir binding with drifting base-line model included in the software.\nHeme was diluted at 10 μM in HBS-EP and injected at flow rate of 30 ul/min. The association and dissociation phases of the interaction were monitored for 5 min and 10 min, respectively. Analysis was performed as described above.\nThe kinetic rate constants obtained at different temperatures were used to build Arrhenius plots. The values of slopes of the Arrhenius plots were calculated by using a linear regression analysis of the experimental kinetic data and substituted in Equations 1-4,\nWhere the “slope”=∂1n(ka/d/∂(1/T), and where Ea is the activation energy. The enthalpy, entropy, and Gibbs free energy changes characterizing the association phase were calculated using Equations 2-4,\n1n(ka/d/T)=ΔH/RT+ΔS/R+1n(k′/h) (Eq. 3)\nwhere T is the temperature in Kelvin, k′ is the Boltzmann constant, and h is Planck's constant. All activation thermodynamic parameters were determined at the reference temperature of 25° C. (298.15 K).\nTo evaluate the changes of the thermodynamic parameters at equilibrium following equation were applied—\n? Geq= ? G‡a− ? G‡d,\n? Heq= ? H‡a− ? H‡d,\nT ? Seq=T ? S‡a−T ? S‡d", "key": {"[1]": {"conditions": "dissociation phase, apparent value"}}}
{"substance": "iron protoporphyrin IX [heme]", "values": [{"measurement": "ΔH during association", "setting": "association phase, apparent value, 25° C.", "result": "40.2 ± 7.2", "unit": "kJ·mol·L"}, {"measurement": "TΔS during the association", "setting": "association phase, reference temperature 25° C.", "result": "-12.4 ± 7.3", "unit": "kJ·mol·L"}, {"measurement": "TΔS during dissociation", "setting": "[1]", "result": "negative"}, {"measurement": "ΔH during dissociation", "setting": "[1]", "result": "negative"}, {"measurement": "TΔS at equilibrium", "setting": "equilibrium", "result": "127 ± 18.3", "unit": "kJ·mol·L"}, {"measurement": "ΔH at equilibrium", "setting": "equilibrium", "result": "87.7 ± 18.9", "unit": "kJ·mol·L"}]}
